{
  "sequences": {"note": "Amino acid sequences for entries named in this document (tags omitted). A change or cut given only in a name is not applied to a line headed by its entry.", "UniProt P18054": "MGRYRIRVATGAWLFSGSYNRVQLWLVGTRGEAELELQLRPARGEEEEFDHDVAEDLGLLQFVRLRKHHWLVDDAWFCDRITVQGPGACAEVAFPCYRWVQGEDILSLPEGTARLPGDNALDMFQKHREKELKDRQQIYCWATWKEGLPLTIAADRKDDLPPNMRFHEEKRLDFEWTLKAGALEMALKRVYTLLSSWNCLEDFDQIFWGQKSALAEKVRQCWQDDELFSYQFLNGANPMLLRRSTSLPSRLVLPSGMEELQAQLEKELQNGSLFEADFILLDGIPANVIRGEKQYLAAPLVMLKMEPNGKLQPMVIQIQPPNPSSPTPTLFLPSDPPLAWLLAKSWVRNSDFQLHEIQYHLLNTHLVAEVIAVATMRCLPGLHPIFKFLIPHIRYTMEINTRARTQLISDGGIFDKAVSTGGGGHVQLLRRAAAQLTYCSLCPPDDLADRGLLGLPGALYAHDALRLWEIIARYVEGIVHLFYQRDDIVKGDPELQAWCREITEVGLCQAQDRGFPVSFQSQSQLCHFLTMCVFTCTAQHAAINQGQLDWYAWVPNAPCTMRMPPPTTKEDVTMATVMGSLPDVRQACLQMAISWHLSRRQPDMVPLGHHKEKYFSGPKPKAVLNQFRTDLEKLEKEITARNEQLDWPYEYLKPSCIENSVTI"},
  "source": "PubChem BioAssay AID1671190",
  "about": "(National Center for Advancing Translational Sciences (NCATS), 2021)",
  "note": "About 6,100 (1.1%) of roughly 580,000 compounds were called active. This list was built around the results that the source calls inconclusive (neither active nor inactive); the mix of calls is not that of the screen. The call rests on the fitted dose curve; in most records, active means well fitted inhibition curve with a large enough effect; inconclusive means small, poorly fitted or top-dose-only effect, or another doubt; inactive means no such curve, though single readings can be large or run the other way. A potency beside an inconclusive call is a rough fit, not a confirmed value. On the % scale 0 is the no-effect control and ±100 the full control effect; potency means the concentration at half of the fitted maximal effect.",
  "data": [
    {"target": "Polyunsaturated fatty acid lipoxygenase ALOX12 (Homo sapiens) (UniProt P18054)", "assay": "Primary qHTS assay for inhibitors of human arachidonate 12S-lipoxygenase (ALOX12): Round 2", "details": "purified 12hLO, xylenol orange hydroperoxide absorbance; activity change, negative = inhibition: at 108 µM (top of the series) unless noted", "outline": "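Purified human 12hLO (150 nM final) in 25 mM Hepes, 0.01% Triton X-100, pH 7.0 was preincubated 15 min at room temperature with compound. Then 40 uM arachidonic acid was added, 30 min. Hydroperoxide was read by Fe-XO absorbance ratio 573/405 nm.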", "values": [
      {"smiles": "COc1ccc(-n2cccc2C=O)cc1", "activity change, negative = inhibition": "inactive: -20.5%"},
      {"smiles": "Cc1nc(N2CCCC2)cc(N2CCN(C(=O)c3ccc(C(F)(F)F)cc3)CC2)n1", "activity change, negative = inhibition": "inactive: -10.9%"},
      {"smiles": "Cc1ccc2[nH]c(=O)c3cc(C(=O)N(C)Cc4ccco4)sc3c2c1", "Potency": "inconclusive: 79.4 µM [inhibitor, partial curve, poor fit]"},
      {"smiles": "CN(C(=O)c1cccc(NC(=O)Cc2ccc(NC(=O)C3CCCN(C(=O)C4CCCCC4)C3)cc2)c1)C1CCC1", "note": "(stereo not drawn)", "Potency": "inconclusive: 0.355 µM [inhibitor, full curve, poor fit]"},
      {"smiles": "COc1ccc(N=C2S/C(=C\\c3ccco3)C(=O)N2CC(C)C)cc1", "Potency": "inconclusive: 44.7 µM [inhibitor, single point]"},
      {"smiles": "COc1ccc(Nc2nccc3[nH]c(-c4cccc(F)c4)cc23)cc1", "Potency": "inconclusive: 89.1 µM [inhibitor, partial curve, poor fit]"},
      {"smiles": "CCc1ccc(Nc2ccc3cc(S(=O)(=O)N4CCCC4)ccc3n2)cc1", "Potency": "active: 14.1 µM"},
      {"smiles": "Cc1[nH][nH]c(=O)c1C(c1c(C)[nH][nH]c1=O)c1cn(Cc2cccc3ccccc23)c2ccccc12", "activity change, negative = inhibition": "inactive: 0%"},
      {"smiles": "C#CCOCCOCCOCCNc1nc(N2CCN(C(=O)[C@H](C(C)C)n3cc(CCO)nn3)CC2)nc(N2CCN(C(=O)[C@H]([C@@H](C)CC)n3cc(CCCN=C(N)N)nn3)CC2)n1", "Potency": "inconclusive: 12.6 µM [inhibitor, partial curve, poor fit]"},
      {"smiles": "CCc1nnc(NC(=O)CSc2nc3c(cc2C#N)CCCC3)s1", "Potency": "inconclusive: 1.78 µM [inhibitor, partial curve, poor fit]"},
      {"smiles": "O=C1CC2(CCCCC2)CC(=O)O1", "activity change, negative = inhibition": "inactive: -1.08%"},
      {"smiles": "COc1ccc2cc(-c3[nH]ncc3CN3CCCN(c4ccccc4)CC3)ccc2c1", "activity change, negative = inhibition": "inactive: -24%"},
      {"smiles": "CCCC(C)NC(=O)CCc1ccc(-c2ccc(OC)cc2)o1", "note": "(stereo not drawn)", "Potency": "inconclusive: 8.91 µM [inhibitor, full curve]"},
      {"smiles": "COc1ccc(NC(=O)C2Cc3c(-c4cccc(NC(C)=O)c4)ccnc3O2)cc1", "note": "(stereo not drawn)", "activity change, negative = inhibition": "inactive: -2.43%"},
      {"smiles": "Cc1ccc(S(=O)(=O)NN2C(=O)/C(=C/c3cccc(F)c3)SC2=S)cc1", "Potency": "inconclusive: 39.8 µM [inhibitor, partial curve, poor fit]"},
      {"smiles": "Cc1ccccc1NC(=O)c1cc(C2CC2)nc2ccccc12", "Potency": "inconclusive: 89.1 µM [inhibitor, partial curve, poor fit]"},
      {"smiles": "CC(=O)NN=C1CCC(C(C)(C)C)CC1", "note": "(stereo not drawn)", "activity change, negative = inhibition": "inactive: 44.7%"},
      {"smiles": "Cn1c(SCC(N)=O)nnc1C1CCN(C(=O)NCc2ccccc2)CC1", "Potency": "inconclusive: 50.1 µM [inhibitor, partial curve, poor fit]"},
      {"smiles": "O=C(OCc1nnc(-c2ccccc2)o1)c1ccc(S(=O)(=O)NCc2ccco2)cc1", "activity change, negative = inhibition": "inactive: -32.7%"},
      {"smiles": "CCCc1nc2c(C)cc(Br)cn2c1Cc1cccc(F)c1", "Potency": "inconclusive: 44.7 µM [inhibitor, partial curve, poor fit]"},
      {"smiles": "CCC[C@@H](CN1CCC[C@H]1CN1C(N)=NC[C@H]1CC(C)C)N1C[C@@H]([C@H](C)CC)N(CCCC2CCCC2)C1=N", "Potency": "inconclusive: 50.1 µM [inhibitor, partial curve, poor fit]"},
      {"smiles": "O=C(Cn1c(=O)n(-c2ccc(Cl)cc2)c(=O)c2oc3ccccc3c21)Nc1ccccc1", "Potency": "inconclusive: 56.2 µM [inhibitor, partial curve, poor fit]"},
      {"smiles": "Fc1cc(Br)ccc1NC(=S)Nc1ccccc1", "Potency": "inconclusive: 79.4 µM [inhibitor, partial curve, poor fit]"},
      {"smiles": "O=C(c1cccnc1)N1CCCC(n2cc(-c3nc(-c4ccccc4)no3)nn2)C1", "note": "(stereo not drawn)", "Potency": "active: 39.8 µM"},
      {"smiles": "CCc1cccc(C)c1NC(=O)NCC(O)c1ccccc1", "note": "(stereo not drawn)", "activity change, negative = inhibition": "inactive: 8.23%"},
      {"smiles": "COc1ccc(C2C(C#N)=C(N)Oc3cc(C)n(Cc4ccco4)c(=O)c32)cc1", "note": "(stereo not drawn)", "Potency": "inconclusive: 25.1 µM [inhibitor, partial curve, poor fit]"},
      {"smiles": "Cc1cc(C)n(CCc2nc(-c3ccc(C)o3)cs2)n1", "Potency": "inconclusive: 25.1 µM [inhibitor, partial curve, poor fit]"},
      {"smiles": "Cc1ccccc1NC(=S)Nn1cnnc1", "Potency": "inconclusive: 39.8 µM [inhibitor, partial curve, poor fit]"},
      {"smiles": "O=C(Oc1coc(CSc2ncccn2)cc1=O)c1cccs1", "Potency": "inconclusive: 44.7 µM [inhibitor, partial curve, poor fit]"},
      {"smiles": "COc1ccc(OCCCC(=O)Nc2ccc3c(c2)OCCO3)cc1", "Potency": "inconclusive: 44.7 µM [inhibitor, partial curve, poor fit]"},
      {"smiles": "CC(C)(C)NC(=O)c1cc(-c2ccc(Cl)cc2)nc2ccccc12", "Potency": "inconclusive: 100 µM [inhibitor, partial curve, poor fit]"},
      {"smiles": "COc1cc2c(cc1CNC(=O)[C@H]1CCC[C@@H](O)C1)OCCO2", "Potency": "inconclusive: 0.891 µM [inhibitor, full curve, poor fit]"},
      {"smiles": "O=C(Cn1cnc2ccccc2c1=O)NC1CCCc2ccccc21", "note": "(stereo not drawn)", "Potency": "inconclusive: 89.1 µM [inhibitor, partial curve, poor fit]"},
      {"smiles": "CCCCCCCOc1ccc(C2(C)NC(=O)NC2=O)cc1", "note": "(stereo not drawn)", "Potency": "inconclusive: 112 µM [inhibitor, partial curve, poor fit]"},
      {"smiles": "O=c1c(C=NCc2cccnc2)c(C(F)(F)F)[nH]n1-c1nc2ccccc2s1", "Potency": "inconclusive: 50.1 µM [inhibitor, partial curve, poor fit]"},
      {"smiles": "Cc1cccc(CN2CC[C@@H]3OCC(=O)N(Cc4ccccc4)[C@H]3CC2)c1", "Potency": "inconclusive: 44.7 µM [inhibitor, partial curve]"},
      {"smiles": "CCC(C)NC(=O)C1COC2(CCN(C(=O)c3ccc(F)cc3)CC2)N1C(=O)c1ccccc1", "note": "(stereo not drawn)", "Potency": "inconclusive: 25.1 µM [inhibitor, partial curve, poor fit]"},
      {"smiles": "O=C(C[C@H]1C/C=C\\C[C@H](Cc2ccc(F)cc2)C(=O)OC[C@@H]2CCCN2C1=O)N[C@H](CO)Cc1ccccc1", "Potency": "inconclusive: 70.8 µM [inhibitor, partial curve, poor fit]"},
      {"smiles": "O=c1cc(-c2ccsc2)oc2cc(-c3ccc4c(c3)OCO4)ccc12", "Potency": "inconclusive: 35.5 µM [inhibitor, partial curve, poor fit]"},
      {"smiles": "COc1ccc(C(C)c2cc3c(cc2OCC(=O)O)OCO3)cc1", "note": "(stereo not drawn)", "Potency": "inconclusive: 44.7 µM [inhibitor, partial curve, poor fit]"},
      {"smiles": "Cc1ccc(S(=O)(=O)C(C#N)c2nc3ccccc3nc2N2CCN(C)CC2)cc1", "note": "(stereo not drawn)", "Potency": "inconclusive: 50.1 µM [inhibitor, partial curve, poor fit]"},
      {"smiles": "Cc1ccc(CN2C(=O)OC(c3cccc(NC(=O)c4ccc(C)cc4)c3)C2C(=O)NCC(C)C)cc1", "note": "(stereo not drawn)", "Potency": "inconclusive: 10 µM [inhibitor, partial curve]"},
      {"smiles": "Cc1ccc2nc(/C(C#N)=C/c3cc(Br)c(O)c(Br)c3)[nH]c2c1", "Potency": "inconclusive: 7.08 µM [inhibitor, full curve]"},
      {"smiles": "CC(C)CCCNC(=O)NC(C)c1ccc(C#N)cc1", "note": "(stereo not drawn)", "activity change, negative = inhibition": "inactive: -18.5%"},
      {"smiles": "Cc1cccc(N2CCN(CCCNC(=O)c3nnc(Cc4c(F)cccc4Cl)o3)CC2C)c1", "note": "(stereo not drawn)", "Potency": "inconclusive: 89.1 µM [inhibitor, partial curve, poor fit]"},
      {"smiles": "COC(=O)CCC(=O)OC1(C)C(=O)C=C2C=C(C3CC3)N(Cc3ccc(OC)cc3)C=C2C1=O", "note": "(stereo not drawn)", "Potency": "inconclusive: 79.4 µM [inhibitor, single point]"},
      {"smiles": "COc1cc2oc(=O)cc(CN3CCN(c4ccccc4OC)CC3)c2cc1Cl", "Potency": "inconclusive: 70.8 µM [inhibitor, partial curve, poor fit]"},
      {"smiles": "Cc1ccc(/C=N/NC(=O)c2cc3c(ccc4ccccc43)o2)o1", "Potency": "inconclusive: 31.6 µM [inhibitor, partial curve, poor fit]"},
      {"smiles": "O=C1CC(c2ccccc2)N(C(=O)C2CC2)CCCN(C(=O)c2ccco2)CCN1", "note": "(stereo not drawn)", "activity change, negative = inhibition": "inactive: 15.9%"},
      {"smiles": "COCCCn1c(SCC(=O)Nc2oc(C)c3c(C)n[nH]c(=O)c23)nc2ccccc2c1=O", "Potency": "inconclusive: 25.1 µM [inhibitor, partial curve, poor fit]"},
      {"smiles": "[O-]/C(=C(\\C(=S)NCc1ccccc1)[n+]1ccccc1)c1ccc(Cl)cc1", "Potency": "inconclusive: 31.6 µM [inhibitor, partial curve]"},
      {"smiles": "O=[N+]([O-])c1ccc(O)c(/C=N/Nc2ccc(Cl)nn2)c1", "activity change, negative = inhibition": "inactive: 3.43%"},
      {"smiles": "O=C1CN2NC(=S)N(c3ccccc3)C2=CN1c1ccc(Cl)cc1", "Potency": "inconclusive: 50.1 µM [inhibitor, partial curve]"},
      {"smiles": "O=C(Oc1ccc(C(=S)N2CCOCC2)cc1Br)c1ccccc1F", "Potency": "inconclusive: 112 µM [inhibitor, partial curve, poor fit]"},
      {"smiles": "N#Cc1c(-c2cccs2)cc(C2CC2)nc1SCC(N)=O", "activity change, negative = inhibition": "inactive: 145%"},
      {"smiles": "COc1cccc(CN2CCCC(O)(CN3CCSCC3)C2=O)c1", "note": "(stereo not drawn)", "activity change, negative = inhibition": "inactive: 11.9%"},
      {"smiles": "Oc1ccc(C23CC4CC(CC(C4)C2)C3)cc1O", "Potency": "inconclusive: 3.98 µM [inhibitor, full curve, poor fit]"},
      {"smiles": "COC(=O)c1ccc2nc(C3CCCCC3)c(Cc3ccccc3OC)n2c1", "Potency": "inconclusive: 35.5 µM [inhibitor, partial curve, poor fit]"},
      {"smiles": "NNC(=O)CN1C(c2ccccc2Br)=Nc2ccc(Br)cc2C1c1ccccc1", "note": "(stereo not drawn)", "activity change, negative = inhibition": "inactive: 17.1%"},
      {"smiles": "CCOC(=O)CN1C(=O)S/C(=C/c2cc(C)n(-c3ccccn3)c2C)C1=O", "activity change, negative = inhibition": "inactive: -16.4%"},
      {"smiles": "S=c1[nH]nc(-c2cc(-c3ccccc3)n[nH]2)n1/N=C/C=C/c1ccco1", "Potency": "active: 39.8 µM"},
      {"smiles": "COc1ccc(NS(=O)(=O)c2cccc(C(=O)N3CCN(Cc4ccc5c(c4)OCO5)CC3)c2)cc1", "activity change, negative = inhibition": "inactive: -22.2%"},
      {"smiles": "CN(C)c1nccnc1OC1CCN(C(=O)CC2CCCC2)C1", "note": "(stereo not drawn)", "activity change, negative = inhibition": "inactive: 16.6%"}
    ]}
  ]
}
